Laboratory results from paper PMC8613218.
Results are given in words; binding and its absence hold for the method and conditions named. In cells and extracts the contact can be indirect. Some results given as binding are weak or reduced against the parent protein; the word gives no strength.

The chains behind the UniProt entries cited, without tags or fusion partners.
UniProt Q00417: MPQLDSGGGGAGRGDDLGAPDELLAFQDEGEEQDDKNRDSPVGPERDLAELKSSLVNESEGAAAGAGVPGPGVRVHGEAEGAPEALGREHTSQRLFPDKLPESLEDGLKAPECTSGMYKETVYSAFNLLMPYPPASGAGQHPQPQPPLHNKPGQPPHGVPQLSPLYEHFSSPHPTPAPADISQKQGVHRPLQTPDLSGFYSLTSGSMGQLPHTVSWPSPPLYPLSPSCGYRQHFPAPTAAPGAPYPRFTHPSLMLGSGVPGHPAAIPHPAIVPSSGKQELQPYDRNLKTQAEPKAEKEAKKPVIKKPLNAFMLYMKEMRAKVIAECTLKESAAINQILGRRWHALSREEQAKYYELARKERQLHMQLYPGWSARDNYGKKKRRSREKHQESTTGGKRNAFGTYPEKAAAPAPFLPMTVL
UniProt P35222: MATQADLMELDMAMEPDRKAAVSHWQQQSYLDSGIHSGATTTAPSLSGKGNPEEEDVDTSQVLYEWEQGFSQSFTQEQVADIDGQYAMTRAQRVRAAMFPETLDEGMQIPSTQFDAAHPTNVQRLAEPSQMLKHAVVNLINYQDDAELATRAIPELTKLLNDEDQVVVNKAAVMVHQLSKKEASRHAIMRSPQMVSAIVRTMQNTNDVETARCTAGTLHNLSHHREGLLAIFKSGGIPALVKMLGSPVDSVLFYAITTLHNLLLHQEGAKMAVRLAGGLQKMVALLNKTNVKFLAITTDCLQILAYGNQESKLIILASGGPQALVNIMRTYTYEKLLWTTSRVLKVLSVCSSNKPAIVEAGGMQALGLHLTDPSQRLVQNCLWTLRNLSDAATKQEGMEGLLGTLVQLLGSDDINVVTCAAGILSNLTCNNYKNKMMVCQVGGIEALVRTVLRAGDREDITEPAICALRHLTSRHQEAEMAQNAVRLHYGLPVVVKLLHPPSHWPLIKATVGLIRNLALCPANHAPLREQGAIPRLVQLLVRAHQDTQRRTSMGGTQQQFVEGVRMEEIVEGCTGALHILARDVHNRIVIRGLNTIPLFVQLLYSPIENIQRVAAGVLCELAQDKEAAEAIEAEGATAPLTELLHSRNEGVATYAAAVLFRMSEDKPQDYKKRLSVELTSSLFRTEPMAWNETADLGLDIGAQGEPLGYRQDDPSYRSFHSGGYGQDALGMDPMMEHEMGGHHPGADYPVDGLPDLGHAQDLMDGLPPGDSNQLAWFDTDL

Target: Flag-tagged TCF1 (p45) (mouse) (UniProt Q00417)
Assay: co-IP; Flag-tagged TCF1 (p45) precipitated from transfected HEK293T lysate (anti-FLAG agarose beads, FLAG peptide elution), components of the LSD1/CoREST complex detected in eluted IP fractions by immunoblot; 2 h at 4 °C

binding: binds
Substance: β-catenin (from UniProt P35222 1-781)
